Measurements: patent publication US7597692B2, “Microscission processes and procedures” (Massachusetts Institute of Technology, priority 2000, dated 2009)

Tested on: Subject A's stratum corneum / skin around the microconduit

For `CCN(CC)CC(=O)Nc1c(C)cccc1C` [lidocaine], the “prick sensation at treated control site” value (50% Lidocaine swab held 2.5 minutes on control (non-microscissioned) stratum corneum site) was “same level of prick sensation as a nontreated site”, the “radial distance from the microconduit numbed to the point of no sensation” value (50% Lidocaine swab held on microconduit site for 2 minutes, needle prick, Subject A) was “approximately 0.015 inch” and the “time after which the numbness began to diminish” value (50% Lidocaine swab on microconduit site 2 minutes, Subject A) was 9 min.
